According to the supplement of paper PMC4604168 (melanoma cell lines):
Some of the results follow. Single values are uncertain, as repeats are few or missing.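 Imaging used 1,536-well plates; nuclei positive for cleaved PARP by antibody were divided by total DNA-stained nuclei to yield the apoptosis fraction. Doses for screening kept most cells viable, and cell lines differ markedly in resting and induced cleaved-PARP levels.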

Legend:
Assay in all cases: cleaved PARP positive nuclei fraction relative to DMSO control; melanoma cells; higher = more apoptosis
Settings in all cases: library dose: low library concentration; 72 h
MZ2-MEL = test system: MZ2-MEL
MeWo = test system: MeWo
RPMI7951 = test system: RPMI7951
RVH-421 = test system: RVH-421
SkMel28 = test system: SkMel28
SkMel2 = test system: SkMel2
SkMel30 = test system: SkMel30
UACC62 = test system: UACC62
WM115 = test system: WM115
WM1716 = test system: WM1716
WM1745 = test system: WM1745
WM3526 = test system: WM3526
WM3619 = test system: WM3619
WM451Lu = test system: WM451Lu

O=c1[nH]nc(Sc2ncc([N+](=O)[O-])s2)n1-c1ccc2c(c1)OCCO2 + C[C@@H](Oc1cc(-c2cnn(C3CCNCC3)c2)cnc1N)c1c(Cl)ccc(F)c1Cl [Crizotinib] (first compound 0.2 µM, partner dose 0.2 µM)
cleaved PARP positive nuclei fraction (MZ2-MEL): 78.9% | cleaved PARP positive nuclei fraction (MeWo): 118% | cleaved PARP positive nuclei fraction (RPMI7951): 34.3% | cleaved PARP positive nuclei fraction (RVH-421): 155% | cleaved PARP positive nuclei fraction (SkMel28): 35.9% | cleaved PARP positive nuclei fraction (SkMel2): 41% | cleaved PARP positive nuclei fraction (SkMel30): 83.1% | cleaved PARP positive nuclei fraction (UACC62): 87.1% | cleaved PARP positive nuclei fraction (WM115): 78.8% | cleaved PARP positive nuclei fraction (WM1716): 77.5% | cleaved PARP positive nuclei fraction (WM1745): 90.4% | cleaved PARP positive nuclei fraction (WM3526): 183% | cleaved PARP positive nuclei fraction (WM3619): 90.7% | cleaved PARP positive nuclei fraction (WM451Lu): 98.2%

O=C(Nc1cc(C(F)(F)F)cc(C(F)(F)F)c1)c1cc(Cl)ccc1O + CN(c1ncccc1CNc1nc(Nc2ccc3c(c2)CC(=O)N3)ncc1C(F)(F)F)S(C)(=O)=O [PF562271] (first compound 0.016 µM, partner dose 0.08 µM)
cleaved PARP positive nuclei fraction (MZ2-MEL): 78.9% | cleaved PARP positive nuclei fraction (MeWo): 167% | cleaved PARP positive nuclei fraction (RPMI7951): 55.8% | cleaved PARP positive nuclei fraction (RVH-421): 109% | cleaved PARP positive nuclei fraction (SkMel28): 95.7% | cleaved PARP positive nuclei fraction (SkMel2): 124% | cleaved PARP positive nuclei fraction (SkMel30): 58.9% | cleaved PARP positive nuclei fraction (UACC62): 234% | cleaved PARP positive nuclei fraction (WM115): 305% | cleaved PARP positive nuclei fraction (WM1716): 78.5% | cleaved PARP positive nuclei fraction (WM1745): 115% | cleaved PARP positive nuclei fraction (WM3526): 208% | cleaved PARP positive nuclei fraction (WM3619): 112% | cleaved PARP positive nuclei fraction (WM451Lu): 50%

O=C(Nc1cc(C(F)(F)F)cc(C(F)(F)F)c1)c1cc(Cl)ccc1O + CC(C)C[C@H](NC(=O)[C@H](Cc1ccccc1)NC(=O)c1cnccn1)B(O)O [Bortezomib] (first compound 0.016 µM, partner dose 0.001 µM)
cleaved PARP positive nuclei fraction (MZ2-MEL): 15.6% | cleaved PARP positive nuclei fraction (MeWo): 133% | cleaved PARP positive nuclei fraction (RPMI7951): 85.9% | cleaved PARP positive nuclei fraction (RVH-421): 47.5% | cleaved PARP positive nuclei fraction (SkMel28): 90.5% | cleaved PARP positive nuclei fraction (SkMel2): 46% | cleaved PARP positive nuclei fraction (SkMel30): 121% | cleaved PARP positive nuclei fraction (UACC62): 94.1% | cleaved PARP positive nuclei fraction (WM115): 72.5% | cleaved PARP positive nuclei fraction (WM1716): 115% | cleaved PARP positive nuclei fraction (WM1745): 124% | cleaved PARP positive nuclei fraction (WM3526): 39.3% | cleaved PARP positive nuclei fraction (WM3619): 186% | cleaved PARP positive nuclei fraction (WM451Lu): 104%

O=C(/C=C/c1cccnc1)NCCCCC1CCN(C(=O)c2ccccc2)CC1 + CNC(=O)c1cc(Oc2ccc(NC(=O)Nc3ccc(Cl)c(C(F)(F)F)c3)cc2)ccn1 [sorafenib] (first compound 0.01 µM, partner dose 0.4 µM)
cleaved PARP positive nuclei fraction (MZ2-MEL): 789% | cleaved PARP positive nuclei fraction (MeWo): 72.4% | cleaved PARP positive nuclei fraction (RPMI7951): 131% | cleaved PARP positive nuclei fraction (RVH-421): 496% | cleaved PARP positive nuclei fraction (SkMel28): 43.9% | cleaved PARP positive nuclei fraction (SkMel2): 1760% | cleaved PARP positive nuclei fraction (SkMel30): 70.9% | cleaved PARP positive nuclei fraction (UACC62): 98.3% | cleaved PARP positive nuclei fraction (WM115): 51.1% | cleaved PARP positive nuclei fraction (WM1716): 73.6% | cleaved PARP positive nuclei fraction (WM1745): 165% | cleaved PARP positive nuclei fraction (WM3526): 80.9% | cleaved PARP positive nuclei fraction (WM3619): 111% | cleaved PARP positive nuclei fraction (WM451Lu): 146%

Cc1cc(Nc2cc(N3CCN(C)CC3)nc(Sc3ccc(NC(=O)C4CC4)cc3)n2)n[nH]1 [Tozasertib] + O=C(/C=C/c1cccnc1)NCCCCC1CCN(C(=O)c2ccccc2)CC1 [FK866] (first compound 0.006 µM, partner dose 0.01 µM)
cleaved PARP positive nuclei fraction (MZ2-MEL): 407% | cleaved PARP positive nuclei fraction (MeWo): 96.6% | cleaved PARP positive nuclei fraction (RPMI7951): 170% | cleaved PARP positive nuclei fraction (RVH-421): 89% | cleaved PARP positive nuclei fraction (SkMel28): 115% | cleaved PARP positive nuclei fraction (SkMel2): 660% | cleaved PARP positive nuclei fraction (SkMel30): 186% | cleaved PARP positive nuclei fraction (UACC62): 248% | cleaved PARP positive nuclei fraction (WM115): 223% | cleaved PARP positive nuclei fraction (WM1716): 136% | cleaved PARP positive nuclei fraction (WM1745): 106% | cleaved PARP positive nuclei fraction (WM3526): 214% | cleaved PARP positive nuclei fraction (WM3619): 104% | cleaved PARP positive nuclei fraction (WM451Lu): 82.6%

O=C(/C=C/c1cccnc1)NCCCCC1CCN(C(=O)c2ccccc2)CC1 + C[C@]1(O)C[C@@H](c2nc(-c3ccc4ccc(-c5ccccc5)nc4c3)c3c(N)nccn32)C1 [OSI906] (first compound 0.01 µM, partner dose 0.4 µM)
cleaved PARP positive nuclei fraction (MZ2-MEL): 730% | cleaved PARP positive nuclei fraction (MeWo): 470% | cleaved PARP positive nuclei fraction (RPMI7951): 127% | cleaved PARP positive nuclei fraction (RVH-421): 193% | cleaved PARP positive nuclei fraction (SkMel28): 171% | cleaved PARP positive nuclei fraction (SkMel2): 739% | cleaved PARP positive nuclei fraction (SkMel30): 145% | cleaved PARP positive nuclei fraction (UACC62): 227% | cleaved PARP positive nuclei fraction (WM115): 105% | cleaved PARP positive nuclei fraction (WM1716): 119% | cleaved PARP positive nuclei fraction (WM1745): 20.9% | cleaved PARP positive nuclei fraction (WM3526): 51.8% | cleaved PARP positive nuclei fraction (WM3619): 119% | cleaved PARP positive nuclei fraction (WM451Lu): 77%

Cc1cn(-c2cc(NC(=O)c3ccc(C)c(Nc4nccc(-c5cccnc5)n4)c3)cc(C(F)(F)F)c2)cn1 [nilotinib] + C[C@@H](N)c1ccc(C(=O)Nc2ccnc3[nH]ccc23)cc1 [RKI983] (first compound 0.2 µM, partner dose 0.4 µM)
cleaved PARP positive nuclei fraction (MZ2-MEL): 137% | cleaved PARP positive nuclei fraction (MeWo): 115% | cleaved PARP positive nuclei fraction (RPMI7951): 238% | cleaved PARP positive nuclei fraction (RVH-421): 45.4% | cleaved PARP positive nuclei fraction (SkMel28): 104% | cleaved PARP positive nuclei fraction (SkMel2): 216% | cleaved PARP positive nuclei fraction (SkMel30): 147% | cleaved PARP positive nuclei fraction (UACC62): 131% | cleaved PARP positive nuclei fraction (WM115): 109% | cleaved PARP positive nuclei fraction (WM1716): 136% | cleaved PARP positive nuclei fraction (WM1745): 116% | cleaved PARP positive nuclei fraction (WM3526): 317% | cleaved PARP positive nuclei fraction (WM3619): 83.3% | cleaved PARP positive nuclei fraction (WM451Lu): 162%

COc1cc([C@@H]2c3cc4c(cc3[C@@H](O[C@@H]3O[C@@H]5CO[C@@H](C)O[C@H]5[C@H](O)[C@H]3O)[C@H]3COC(=O)[C@H]23)OCO4)cc(OC)c1O [etoposide] + O=C(Nc1cc(C(F)(F)F)cc(C(F)(F)F)c1)c1cc(Cl)ccc1O [IMD0354] (first compound 0.02 µM, partner dose 0.016 µM)
cleaved PARP positive nuclei fraction (MZ2-MEL): 37.5% | cleaved PARP positive nuclei fraction (MeWo): 104% | cleaved PARP positive nuclei fraction (RPMI7951): 164% | cleaved PARP positive nuclei fraction (RVH-421): 126% | cleaved PARP positive nuclei fraction (SkMel28): 294% | cleaved PARP positive nuclei fraction (SkMel2): 98.4% | cleaved PARP positive nuclei fraction (SkMel30): 215% | cleaved PARP positive nuclei fraction (UACC62): 154% | cleaved PARP positive nuclei fraction (WM115): 21.4% | cleaved PARP positive nuclei fraction (WM1716): 38% | cleaved PARP positive nuclei fraction (WM1745): 91.6% | cleaved PARP positive nuclei fraction (WM3526): 248% | cleaved PARP positive nuclei fraction (WM3619): 80.5% | cleaved PARP positive nuclei fraction (WM451Lu): 88.5%

O=C(/C=C/c1cccnc1)NCCCCC1CCN(C(=O)c2ccccc2)CC1 + O=C(O)[C@@H]1[O][Sb](=[O])([O][Sb]2(=[O])[O][C@H]([C@H](O)CO)[C@H](O)[C@H](C(=O)O)[O]2)[O][C@H]([C@H](O)CO)[C@@H]1O [stibogluconate] (first compound 0.01 µM, partner dose 2 µM)
cleaved PARP positive nuclei fraction (MZ2-MEL): 538% | cleaved PARP positive nuclei fraction (MeWo): 56.6% | cleaved PARP positive nuclei fraction (RPMI7951): 123% | cleaved PARP positive nuclei fraction (RVH-421): 101% | cleaved PARP positive nuclei fraction (SkMel28): 79.4% | cleaved PARP positive nuclei fraction (SkMel2): 2130% | cleaved PARP positive nuclei fraction (SkMel30): 11.7% | cleaved PARP positive nuclei fraction (UACC62): 141% | cleaved PARP positive nuclei fraction (WM115): 103% | cleaved PARP positive nuclei fraction (WM1716): 32% | cleaved PARP positive nuclei fraction (WM1745): 80.5% | cleaved PARP positive nuclei fraction (WM3526): 24.5% | cleaved PARP positive nuclei fraction (WM3619): 83.8% | cleaved PARP positive nuclei fraction (WM451Lu): 166%

O=c1[nH]nc(Sc2ncc([N+](=O)[O-])s2)n1-c1ccc2c(c1)OCCO2 + Cn1nnc2c(C(N)=O)ncn2c1=O [temozolomide] (first compound 0.2 µM, partner dose 2 µM)
cleaved PARP positive nuclei fraction (MZ2-MEL): 92.5% | cleaved PARP positive nuclei fraction (MeWo): 198% | cleaved PARP positive nuclei fraction (RPMI7951): 121% | cleaved PARP positive nuclei fraction (RVH-421): 91.9% | cleaved PARP positive nuclei fraction (SkMel28): 66.3% | cleaved PARP positive nuclei fraction (SkMel2): 168% | cleaved PARP positive nuclei fraction (SkMel30): 139% | cleaved PARP positive nuclei fraction (UACC62): 140% | cleaved PARP positive nuclei fraction (WM115): 72.3% | cleaved PARP positive nuclei fraction (WM1716): 85.4% | cleaved PARP positive nuclei fraction (WM1745): 101% | cleaved PARP positive nuclei fraction (WM3526): 32.3% | cleaved PARP positive nuclei fraction (WM3619): 102% | cleaved PARP positive nuclei fraction (WM451Lu): 176%
